Results reported in article PMC2642718.
No constants are given. Whether binding was seen depends on the method and setting. In cells and extracts the contact can be indirect. A result given as binding can be weak or reduced; the word gives no strength.

Molecular target: StcE fused to a chitin binding domain (StcE-CBD) (Escherichia coli O157:H7)
Experiment: pull-down; StcE-CBD bound to chitin beads incubated with lysed dHL-60 cells, in the presence of EDTA; chitin beads alone as control; immunoblot for CD43 (L10) or CD45 (HI-30); only the target purified

B1: CD43 (leukosialin), endogenous, in cell lysates (protein, UniProt P16150 20-400)
chain: STTAVQTPTSGEPLVSTSEPLSSKMYTTSITSDPKADSTGDQTSALPPSTSINEGSPLWTSIGASTGSPLPEPTTYQEVSIKMSSVPQETPHATSHPAVPITANSLGSHTVTGGTITTNSPETSSRTSGAPVTTAASSLETSRGTSGPPLTMATVSLETSKGTSGPPVTMATDSLETSTGTTGPPVTMTTGSLEPSSGASGPQVSSVKLSTMMSPTTSTNASTVPFRNPDENSRGMLPVAVLVALLAVIVLVALLLLWRRRQKRRTGALVLSRGGKRNGVVDAWAGPAQVPEEGAVTVTVGGSGGDKGSGFPDGEGSSRRPTLTTFFGRRKSRQGSLAMEELKSGSGPSLKGEEEPLVASEDGAVDAPAPDEPEGGDGAAP
- binding: binds
